Experimental data as given in publication doi:10.1101/2021.08.24.457465.

What was measured:
[1] = molecular target: T1, ToPif1 (wild type) (Thermus oshimai) (UniProt K7RJ88); test: X-ray crystallography; details: ADP·AlF4; residues 64-507
T1 sequence (looked up): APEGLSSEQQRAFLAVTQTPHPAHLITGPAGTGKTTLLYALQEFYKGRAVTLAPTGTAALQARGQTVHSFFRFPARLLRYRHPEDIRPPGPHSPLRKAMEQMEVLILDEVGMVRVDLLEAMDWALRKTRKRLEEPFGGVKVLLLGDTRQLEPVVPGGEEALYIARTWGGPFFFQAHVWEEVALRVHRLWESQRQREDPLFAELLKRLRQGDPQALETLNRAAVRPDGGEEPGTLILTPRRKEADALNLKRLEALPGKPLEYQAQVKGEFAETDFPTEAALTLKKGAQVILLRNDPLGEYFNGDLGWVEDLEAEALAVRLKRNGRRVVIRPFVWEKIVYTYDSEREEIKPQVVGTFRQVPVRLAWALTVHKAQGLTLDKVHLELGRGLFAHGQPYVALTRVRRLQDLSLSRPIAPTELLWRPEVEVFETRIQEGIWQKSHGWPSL

[2] = molecular target: T1, ToPif1 (wild type) (Thermus oshimai); test: fluorescence anisotropy; details: 0.5 mM ADP·AlF4, 2 mM Mg2+, text: bound only weakly; residues 64-507

Sequence | binding result [1] | Kd [2]
GGTTTGGTTTGGTTTGG [GR17] | binds | 
GCCCTGGTGCCGACCAACGAAGGT (double strand) [D24] |  | > 0.25 µM

Where a protein sequence is shown, tags need not be part of it. For some assays here: The exact form of at least one protein or probe is not confirmed.
